Binding data for 3 substances are collected here from article PMC9849303.

Protein sequences, listed by entry. Tags and fused reporters are not part of them. Lines headed by an entry give the natural chain unless they say otherwise; changes in a name come on top. Chains listed by the source or under a name are the forms on record and can include a tag or linker. Residues count along the entry.
UniProt P21333: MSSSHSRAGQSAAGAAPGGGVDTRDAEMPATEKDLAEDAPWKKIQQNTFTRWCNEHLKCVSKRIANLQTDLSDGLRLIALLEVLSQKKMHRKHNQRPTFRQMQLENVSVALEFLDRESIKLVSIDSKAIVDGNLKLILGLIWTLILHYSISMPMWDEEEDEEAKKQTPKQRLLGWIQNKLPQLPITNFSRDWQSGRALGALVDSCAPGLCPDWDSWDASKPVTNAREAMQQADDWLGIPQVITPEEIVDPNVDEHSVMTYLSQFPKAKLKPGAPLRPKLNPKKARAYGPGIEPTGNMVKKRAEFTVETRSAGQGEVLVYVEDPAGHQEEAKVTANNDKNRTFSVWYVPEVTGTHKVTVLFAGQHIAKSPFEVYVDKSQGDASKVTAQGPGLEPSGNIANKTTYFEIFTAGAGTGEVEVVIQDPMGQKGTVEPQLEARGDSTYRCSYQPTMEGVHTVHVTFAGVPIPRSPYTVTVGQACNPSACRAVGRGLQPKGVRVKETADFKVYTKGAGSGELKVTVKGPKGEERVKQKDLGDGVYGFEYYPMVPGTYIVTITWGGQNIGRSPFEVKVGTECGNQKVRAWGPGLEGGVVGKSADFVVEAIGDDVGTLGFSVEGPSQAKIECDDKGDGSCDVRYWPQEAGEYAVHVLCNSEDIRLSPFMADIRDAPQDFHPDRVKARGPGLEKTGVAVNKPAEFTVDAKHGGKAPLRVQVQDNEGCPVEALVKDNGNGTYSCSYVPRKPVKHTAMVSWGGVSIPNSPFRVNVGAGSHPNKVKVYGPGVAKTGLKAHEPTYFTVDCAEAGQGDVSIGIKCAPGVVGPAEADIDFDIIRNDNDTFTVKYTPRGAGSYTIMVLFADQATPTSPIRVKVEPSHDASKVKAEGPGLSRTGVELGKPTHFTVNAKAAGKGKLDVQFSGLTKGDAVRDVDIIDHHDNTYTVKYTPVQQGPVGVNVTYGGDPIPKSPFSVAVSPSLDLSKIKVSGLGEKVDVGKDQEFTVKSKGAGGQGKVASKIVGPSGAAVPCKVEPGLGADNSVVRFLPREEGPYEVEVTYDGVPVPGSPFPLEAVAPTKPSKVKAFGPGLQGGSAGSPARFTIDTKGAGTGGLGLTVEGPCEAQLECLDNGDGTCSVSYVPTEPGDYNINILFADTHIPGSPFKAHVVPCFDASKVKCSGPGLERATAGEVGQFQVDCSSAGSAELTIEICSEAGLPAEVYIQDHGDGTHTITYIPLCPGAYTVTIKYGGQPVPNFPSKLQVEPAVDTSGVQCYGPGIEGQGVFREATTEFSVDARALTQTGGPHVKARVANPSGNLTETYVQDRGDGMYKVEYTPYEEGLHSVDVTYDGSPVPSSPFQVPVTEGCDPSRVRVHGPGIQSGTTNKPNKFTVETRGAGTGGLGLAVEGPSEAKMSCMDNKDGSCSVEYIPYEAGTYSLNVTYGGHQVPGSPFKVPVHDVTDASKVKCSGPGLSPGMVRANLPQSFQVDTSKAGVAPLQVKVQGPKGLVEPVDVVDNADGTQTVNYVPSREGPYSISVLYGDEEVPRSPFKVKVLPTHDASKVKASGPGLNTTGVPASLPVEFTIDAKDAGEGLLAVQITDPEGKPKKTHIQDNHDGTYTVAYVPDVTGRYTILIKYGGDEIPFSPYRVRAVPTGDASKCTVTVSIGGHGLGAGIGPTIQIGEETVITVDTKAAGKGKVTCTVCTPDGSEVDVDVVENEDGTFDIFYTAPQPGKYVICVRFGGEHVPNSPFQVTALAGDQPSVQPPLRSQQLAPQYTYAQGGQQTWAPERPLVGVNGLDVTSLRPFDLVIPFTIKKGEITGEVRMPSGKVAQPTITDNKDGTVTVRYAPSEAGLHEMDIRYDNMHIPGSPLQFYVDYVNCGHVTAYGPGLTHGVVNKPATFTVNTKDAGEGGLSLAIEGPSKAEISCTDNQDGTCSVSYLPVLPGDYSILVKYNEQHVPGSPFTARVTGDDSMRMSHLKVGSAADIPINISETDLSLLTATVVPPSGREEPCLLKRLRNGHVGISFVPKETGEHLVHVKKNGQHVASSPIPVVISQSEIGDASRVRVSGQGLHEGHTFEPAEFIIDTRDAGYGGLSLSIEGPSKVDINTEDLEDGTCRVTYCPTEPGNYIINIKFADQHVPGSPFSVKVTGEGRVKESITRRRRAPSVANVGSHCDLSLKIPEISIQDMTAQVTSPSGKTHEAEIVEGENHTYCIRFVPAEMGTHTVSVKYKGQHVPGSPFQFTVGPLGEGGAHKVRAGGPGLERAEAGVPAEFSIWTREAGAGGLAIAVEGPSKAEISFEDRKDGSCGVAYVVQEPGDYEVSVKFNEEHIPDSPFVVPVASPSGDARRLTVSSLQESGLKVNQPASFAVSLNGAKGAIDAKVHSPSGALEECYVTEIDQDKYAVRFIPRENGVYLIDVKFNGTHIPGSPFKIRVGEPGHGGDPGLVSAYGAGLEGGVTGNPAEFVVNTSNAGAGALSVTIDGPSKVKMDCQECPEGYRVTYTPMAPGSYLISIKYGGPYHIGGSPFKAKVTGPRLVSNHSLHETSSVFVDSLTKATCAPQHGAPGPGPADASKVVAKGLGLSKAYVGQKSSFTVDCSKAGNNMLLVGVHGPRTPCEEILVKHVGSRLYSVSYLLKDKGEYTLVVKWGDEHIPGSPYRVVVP
GFP-TauMBD-CT (pEGFP-C1 Tau0N4R MBD-CT (157-383)) (P10636, residues 532-758): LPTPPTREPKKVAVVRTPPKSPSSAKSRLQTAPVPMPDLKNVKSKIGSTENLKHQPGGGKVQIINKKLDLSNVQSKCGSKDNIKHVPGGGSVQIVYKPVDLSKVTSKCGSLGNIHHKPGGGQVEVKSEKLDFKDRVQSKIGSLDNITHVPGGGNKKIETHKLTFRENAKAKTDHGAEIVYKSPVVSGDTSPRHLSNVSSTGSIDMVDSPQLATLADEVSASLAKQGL
GFP-4RTau (pEGFP-C1 Tau0N4R) (P10636-6, form named): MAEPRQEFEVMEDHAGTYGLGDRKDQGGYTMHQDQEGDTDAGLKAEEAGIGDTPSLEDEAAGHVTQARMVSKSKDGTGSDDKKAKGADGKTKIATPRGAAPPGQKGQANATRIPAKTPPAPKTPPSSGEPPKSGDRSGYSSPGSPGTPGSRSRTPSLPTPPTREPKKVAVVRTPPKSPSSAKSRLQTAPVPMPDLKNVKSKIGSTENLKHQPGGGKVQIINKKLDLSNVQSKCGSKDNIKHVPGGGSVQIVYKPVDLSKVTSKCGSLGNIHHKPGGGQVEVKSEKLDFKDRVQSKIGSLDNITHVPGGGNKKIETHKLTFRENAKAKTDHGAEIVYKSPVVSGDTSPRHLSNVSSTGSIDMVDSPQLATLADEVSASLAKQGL
GFP-TauNT (pEGFP-C1 Tau0N4R NT (1-156)) (P10636-6, form named): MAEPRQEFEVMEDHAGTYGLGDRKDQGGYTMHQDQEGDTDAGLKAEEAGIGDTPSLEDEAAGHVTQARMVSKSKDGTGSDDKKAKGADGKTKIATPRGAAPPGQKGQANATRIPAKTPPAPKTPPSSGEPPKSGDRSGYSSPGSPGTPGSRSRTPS

No constants are given. Whether binding was seen depends on the method and setting. In cells and extracts the contact can be indirect. Some entries that bind do so weakly or less than the wild type.

The target in this experiment is myc-FLNA (pcDNA3-myc-FLNa WT) (UniProt P21333). Put plainly: co-IP; myc-trap on lysates of N2a cells co-transfected with myc-FLNA and the GFP constructs, processed as for the GFP-trap; Tau detected by blot with the GFP antibody; n = 3.
For “GFP-4RTau (pEGFP-C1 Tau0N4R) (from UniProt P10636-6 1-383)”, the binding result is on record as “binds”.
In the case of “GFP-TauMBD-CT (pEGFP-C1 Tau0N4R MBD-CT (157-383)) (from UniProt P10636-6 157-383) (domain or fragment)” it was “binds”.
Under “GFP-TauNT (pEGFP-C1 Tau0N4R NT (1-156)) (from UniProt P10636-6 1-156) (domain or fragment)” stands “no binding”.
